Results reported in US10597433B2, “Peptides and combination of peptides for use in immunotherapy against small cell lung cancer and other cancers” (Immatics Biotechnologies GmbH, priority 2015, dated 2020).

System: small cell lung cancer samples
Test: Identification and label-free LC-MS quantitation of HLA-presented peptides on tumor versus normal tissues (presentation profile/score)
Parameters: species or system human; key: very highly over-presented on tumors compared to a panel of normal tissues (+++); highly over-presented on tumors compared to a panel of normal tissues (++); over-presented on tumors compared to a panel of normal tissues (+)
Conditions: small cell lung cancer tumors compared to a panel of normal tissues

Substance	Peptide Presentation (presentation score)
31 (RLLQDPVGV; listed as Homo sapiens) [compound 31]	+
65 (VMYDLITEL; listed as Homo sapiens) [compound 65]	++
73 (SLSSYTPDV; listed as Homo sapiens) [compound 73]	+++
27 (SLDIITITV; listed as Homo sapiens) [compound 27]	+++
57 (VLIGDVLVAV; listed as Homo sapiens) [compound 57]	+++
47 (GLLEALLKI; listed as Homo sapiens) [compound 47]	+++
45 (SLSGEIILHSV; listed as Homo sapiens) [compound 45]	+++
62 (VMLPIGAVVMV; listed as Homo sapiens) [compound 62]	+++
69 (KLFDRSVDL; listed as Homo sapiens) [compound 69]	++
126 (AAASLIRLV; listed as Homo sapiens) [compound 126]	+++
7 (GLLGDIAIHL; listed as Homo sapiens) [compound 7]	+++
20 (MLDEILLQL; listed as Homo sapiens) [compound 20]	+
89 (IQHDLIFSL; listed as Homo sapiens) [compound 89]	+
116 (ALLVRLQEV; listed as Homo sapiens) [compound 116]	+++
68 (FLFPVYPLI; listed as Homo sapiens) [compound 68]	+
114 (ALLEPGGVLTI; listed as Homo sapiens) [compound 114]	+++
106 (KMPDDVWLV; listed as Homo sapiens) [compound 106]	+

Substance	Peptide Presentation (presentation score)
120 (SLAADIPRL; listed as Homo sapiens) [compound 120]	++
58 (VLLNINGIDL; listed as Homo sapiens) [compound 58]	+++
84 (KMFENEFLL; listed as Homo sapiens) [compound 84]	+
5 (SLQSLIISV; listed as Homo sapiens) [compound 5]	+
115 (ALLPSDCLQEA; listed as Homo sapiens) [compound 115]	+++
41 (KAYQELLATV; listed as Homo sapiens) [compound 41]	+++
97 (ALLDGTVFEI; listed as Homo sapiens) [compound 97]	++
72 (KAIGSLKEV; listed as Homo sapiens) [compound 72]	+++
103 (SLLEYQMLV; listed as Homo sapiens) [compound 103]	+
121 (YMLEHVITL; listed as Homo sapiens) [compound 121]	+
2 (VMFNFPDQATV; listed as Homo sapiens) [compound 2]	++
96 (NLLKLIAEV; listed as Homo sapiens) [compound 96]	+
105 (SMYDKVLML; listed as Homo sapiens) [compound 105]	+
40 (GLLEVQVEV; listed as Homo sapiens) [compound 40]	+++
86 (KVIDYVPGI; listed as Homo sapiens) [compound 86]	+
99 (QMLEAIKALEV; listed as Homo sapiens) [compound 99]	++
54 (HLFDIILTSV; listed as Homo sapiens) [compound 54]	++
